# Test results from the supplement of paper PMC8728848.
# This is one part of the list.
# B1: Lb MiSSP8 (Laccaria bicolor) (protein)
# chain: MYFHTLFACATLMLITTAHASPTVINSLDSRKADLNGDVEARHAADWRRDSDWRRDSDWRRDSDWRRDSD
# Columns and labels:
# Experiment in all cases: glycan array binding signal (z-score within array); higher = stronger binding
# Conditions in all cases: glycan notation: IUPAC condensed, linker removed
# [1] = target: Fuc(a1-2)Gal6S(b1-3)GlcNAc6S
# Procedure, shortened: (§1)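 Negative Z-scores can be read as non-binding. The Z-score is calculated within each array and then averaged across arrays of one protein sequence at different concentrations or buffers and across linkers. Arrays, 3228 in all, were curated from the Consortium for Functional Glycomics database and kept only where the protein sequence was available.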
# Fuc(a1-2)Gal6S(b1-4)Glc = target: Fuc(a1-2)Gal6S(b1-4)Glc
# Procedure, shortened: as §1
# [2] = target: Fuc(a1-2)Gal6S(b1-4)Glc6S
# Procedure, shortened: as §1
# Fuc(a1-2)[Gal(a1-3)]Gal = target: Fuc(a1-2)[Gal(a1-3)]Gal
# Procedure, shortened: as §1
# [3] = target: Fuc(a1-2)[Gal(a1-3)]Gal(b1-3)GalNAc
# Procedure, shortened: as §1
# [4] = target: Fuc(a1-2)[Gal(a1-3)]Gal(b1-3)GalNAc(b1-3)Gal(a1-4)Gal(b1-4)Glc
# Procedure, shortened: as §1
# [5] = target: Fuc(a1-2)[Gal(a1-3)]Gal(b1-3)GlcNAc
# Procedure, shortened: as §1
# [6] = target: Fuc(a1-2)[Gal(a1-3)]Gal(b1-3)GlcNAc(b1-2)Man(a1-3)[Fuc(a1-2)[Gal(a1-3)]Gal(b1-3)GlcNAc(b1-2)Man(a1-6)]Man(b1-4)GlcNAc(b1-4)GlcNAc
# Procedure, shortened: as §1
# [7] = target: Fuc(a1-2)[Gal(a1-3)]Gal(b1-3)GlcNAc(b1-2)Man(a1-3)[Fuc(a1-2)[Gal(a1-3)]Gal(b1-3)GlcNAc(b1-2)Man(a1-6)]Man(b1-4)GlcNAc(b1-4)[Fuc(a1-6)]GlcNAc
# Procedure, shortened: as §1
# [8] = target: Fuc(a1-2)[Gal(a1-3)]Gal(b1-3)GlcNAc(b1-3)GalNAc
# Procedure, shortened: as §1
# [9] = target: Fuc(a1-2)[Gal(a1-3)]Gal(b1-3)GlcNAc(b1-6)GalNAc
# Procedure, shortened: as §1
# [10] = target: Fuc(a1-2)[Gal(a1-3)]Gal(b1-4)Glc
# Procedure, shortened: as §1
# [11] = target: Fuc(a1-2)[Gal(a1-3)]Gal(b1-4)GlcNAc
# Procedure, shortened: as §1
# [12] = target: Fuc(a1-2)[Gal(a1-3)]Gal(b1-4)GlcNAc(b1-2)Man
# Procedure, shortened: as §1
# [13] = target: Fuc(a1-2)[Gal(a1-3)]Gal(b1-4)GlcNAc(b1-2)Man(a1-3)[Fuc(a1-2)[Gal(a1-3)]Gal(b1-4)GlcNAc(b1-2)Man(a1-6)]Man(b1-4)GlcNAc(b1-4)GlcNAc
# Procedure, shortened: as §1
# [14] = target: Fuc(a1-2)[Gal(a1-3)]Gal(b1-4)GlcNAc(b1-2)Man(a1-3)[Fuc(a1-2)[Gal(a1-3)]Gal(b1-4)GlcNAc(b1-2)Man(a1-6)]Man(b1-4)GlcNAc(b1-4)[Fuc(a1-6)]GlcNAc
# Procedure, shortened: as §1
# [15] = target: Fuc(a1-2)[Gal(a1-3)]Gal(b1-4)GlcNAc(b1-3)GalNAc
# Procedure, shortened: as §1
# [16] = target: Fuc(a1-2)[Gal(a1-3)]Gal(b1-4)GlcNAc(b1-3)[Fuc(a1-2)[Gal(a1-3)]Gal(b1-4)GlcNAc(b1-6)]GalNAc
# Procedure, shortened: as §1
# [17] = target: Fuc(a1-2)[Gal(a1-3)]Gal(b1-4)GlcNAc(b1-6)GalNAc
# Procedure, shortened: as §1
# [18] = target: Fuc(a1-2)[Gal(a1-3)]Gal(b1-4)[Fuc(a1-3)]Glc
# Procedure, shortened: as §1
# [19] = target: Fuc(a1-2)[Gal(a1-3)]Gal(b1-4)[Fuc(a1-3)]GlcNAc
# Procedure, shortened: as §1
# [20] = target: Fuc(a1-2)[Gal(a1-3)]Gal(b1-4)[Fuc(a1-3)]GlcNAc(b1-3)GalNAc
# Procedure, shortened: as §1
# [21] = target: Fuc(a1-2)[Gal(a1-4)]Gal(b1-4)GlcNAc
# Procedure, shortened: as §1
# [22] = target: Fuc(a1-2)[GalNAc(a1-3)]Gal
# Procedure, shortened: as §1
# [23] = target: Fuc(a1-2)[GalNAc(a1-3)]Gal(b1-3)GalNAc(a1-3)[Fuc(a1-2)]Gal(b1-4)GlcNAc
# Procedure, shortened: as §1
# [24] = target: Fuc(a1-2)[GalNAc(a1-3)]Gal(b1-3)GalNAc(b1-3)Gal(a1-4)Gal(b1-4)Glc
# Procedure, shortened: as §1
# [25] = target: Fuc(a1-2)[GalNAc(a1-3)]Gal(b1-3)GlcNAc
# Procedure, shortened: as §1
# [26] = target: Fuc(a1-2)[GalNAc(a1-3)]Gal(b1-3)GlcNAc(b1-2)Man(a1-3)[Fuc(a1-2)[GalNAc(a1-3)]Gal(b1-3)GlcNAc(b1-2)Man(a1-6)]Man(b1-4)GlcNAc(b1-4)GlcNAc
# Procedure, shortened: as §1
# [27] = target: Fuc(a1-2)[GalNAc(a1-3)]Gal(b1-3)GlcNAc(b1-2)Man(a1-3)[Fuc(a1-2)[GalNAc(a1-3)]Gal(b1-3)GlcNAc(b1-2)Man(a1-6)]Man(b1-4)GlcNAc(b1-4)[Fuc(a1-6)]GlcNAc
# Procedure, shortened: as §1
# [28] = target: Fuc(a1-2)[GalNAc(a1-3)]Gal(b1-3)GlcNAc(b1-3)GalNAc
# Procedure, shortened: as §1
# [29] = target: Fuc(a1-2)[GalNAc(a1-3)]Gal(b1-3)GlcNAc(b1-6)GalNAc
# Procedure, shortened: as §1
# [30] = target: Fuc(a1-2)[GalNAc(a1-3)]Gal(b1-4)Glc
# Procedure, shortened: as §1
# [31] = target: Fuc(a1-2)[GalNAc(a1-3)]Gal(b1-4)GlcNAc
# Procedure, shortened: as §1
# [32] = target: Fuc(a1-2)[GalNAc(a1-3)]Gal(b1-4)GlcNAc(b1-2)Man
# Procedure, shortened: as §1
# [33] = target: Fuc(a1-2)[GalNAc(a1-3)]Gal(b1-4)GlcNAc(b1-2)Man(a1-3)[Fuc(a1-2)[GalNAc(a1-3)]Gal(b1-4)GlcNAc(b1-2)Man(a1-6)]Man(b1-4)GlcNAc(b1-4)GlcNAc
# Procedure, shortened: as §1
# [34] = target: Fuc(a1-2)[GalNAc(a1-3)]Gal(b1-4)GlcNAc(b1-2)Man(a1-3)[Fuc(a1-2)[GalNAc(a1-3)]Gal(b1-4)GlcNAc(b1-2)Man(a1-6)]Man(b1-4)GlcNAc(b1-4)[Fuc(a1-6)]GlcNAc
# Procedure, shortened: as §1
# [35] = target: Fuc(a1-2)[GalNAc(a1-3)]Gal(b1-4)GlcNAc(b1-3)Gal(b1-4)GlcNAc
# Procedure, shortened: as §1
# [36] = target: Fuc(a1-2)[GalNAc(a1-3)]Gal(b1-4)GlcNAc(b1-3)Gal(b1-4)GlcNAc(b1-3)Gal(b1-4)GlcNAc
# Procedure, shortened: as §1
# [37] = target: Fuc(a1-2)[GalNAc(a1-3)]Gal(b1-4)GlcNAc(b1-3)GalNAc
# Procedure, shortened: as §1
# [38] = target: Fuc(a1-2)[GalNAc(a1-3)]Gal(b1-4)GlcNAc(b1-3)[Fuc(a1-2)[GalNAc(a1-3)]Gal(b1-4)GlcNAc(b1-6)]GalNAc
# Procedure, shortened: as §1
# [39] = target: Fuc(a1-2)[GalNAc(a1-3)]Gal(b1-4)GlcNAc(b1-6)GalNAc
# Procedure, shortened: as §1
# [40] = target: Fuc(a1-2)[GalNAc(a1-3)]Gal(b1-4)[Fuc(a1-3)]GlcNAc
# Procedure, shortened: as §1
# [41] = target: Fuc(a1-2)[GalNAc(a1-3)]Gal(b1-4)[Fuc(a1-3)]GlcNAc(b1-3)GalNAc
# Procedure, shortened: as §1
# [42] = target: Fuc(a1-2)[GalNAc(a1-4)]Gal(b1-4)GlcNAc
# Procedure, shortened: as §1
# [43] = target: Fuc(a1-2)[GalNAc(b1-3)]Gal
# Procedure, shortened: as §1
binder,measurement,setting,value
B1,glycan array binding signal (z-score),[1],0.941
same,glycan array binding signal (z-score),Fuc(a1-2)Gal6S(b1-4)Glc,-0.723
same,glycan array binding signal (z-score),[2],0.016
same,glycan array binding signal (z-score),Fuc(a1-2)[Gal(a1-3)]Gal,-0.474
same,glycan array binding signal (z-score),[3],0.371
same,glycan array binding signal (z-score),[4],-0.474
same,glycan array binding signal (z-score),[5],-0.499
same,glycan array binding signal (z-score),[6],-0.281
same,glycan array binding signal (z-score),[7],0.098
same,glycan array binding signal (z-score),[8],-0.626
same,glycan array binding signal (z-score),[9],-0.537
same,glycan array binding signal (z-score),[10],-0.357
same,glycan array binding signal (z-score),[11],-0.53
same,glycan array binding signal (z-score),[12],-0.04
same,glycan array binding signal (z-score),[13],-0.157
same,glycan array binding signal (z-score),[14],-0.033
same,glycan array binding signal (z-score),[15],-0.778
same,glycan array binding signal (z-score),[16],-0.571
same,glycan array binding signal (z-score),[17],-0.53
same,glycan array binding signal (z-score),[18],-0.778
same,glycan array binding signal (z-score),[19],-0.005
same,glycan array binding signal (z-score),[20],-0.806
same,glycan array binding signal (z-score),[21],0.685
same,glycan array binding signal (z-score),[22],-0.616
same,glycan array binding signal (z-score),[23],-0.847
same,glycan array binding signal (z-score),[24],1.36
same,glycan array binding signal (z-score),[25],0.416
same,glycan array binding signal (z-score),[26],-0.219
same,glycan array binding signal (z-score),[27],-0.419
same,glycan array binding signal (z-score),[28],0.582
same,glycan array binding signal (z-score),[29],-0.854
same,glycan array binding signal (z-score),[30],-0.33
same,glycan array binding signal (z-score),[31],-0.502
same,glycan array binding signal (z-score),[32],-0.606
same,glycan array binding signal (z-score),[33],0.492
same,glycan array binding signal (z-score),[34],-0.074
same,glycan array binding signal (z-score),[35],-0.751
same,glycan array binding signal (z-score),[36],0.851
same,glycan array binding signal (z-score),[37],-0.785
same,glycan array binding signal (z-score),[38],-0.702
same,glycan array binding signal (z-score),[39],-0.647
same,glycan array binding signal (z-score),[40],0.83
same,glycan array binding signal (z-score),[41],0.402
same,glycan array binding signal (z-score),[42],-0.509
same,glycan array binding signal (z-score),[43],-0.336

# Rewritten as tab-separated lines: part of the list above
binder	measurement	setting	value
B1	glycan array binding signal (z-score)	[3]	0.371
same	glycan array binding signal (z-score)	[28]	0.582
